In paper PMC5609913, “Structure based design, synthesis and activity studies of small hybrid molecules as HDAC and G9a dual inhibitors” (Oncotarget, 2017):
Where two headings read alike, the source gives them in different places.

Experiments:
Format in all cases: cell-based
A549 cells = assay: Cell anti-proliferation / toxicity assay (CCK-8), A549; conditions: Homo sapiens, Table 6, 72 h, >100 = not reached at highest tested concentration (100 μM)
Experimental: (§1) Cell anti-proliferation assays were performed to determine the toxicity of these inhibitors. Several cell lines (MDA-MB-231, MCF-7 and A549) were incubated and then treated with varying concentrations of the inhibitors for 72 h, respectively. […] These compounds were further evaluated against the control cell line HEK293 to test their toxicity with a non-cancerous cell line.
(§2) A549, MDA-MB-231, MCF-7 and HEK293 cells were seeded at 8000-10000 cells (100 μl) in white 96-well plates and pre-incubate the plate for 24 h under standard cell culture conditions, respectively. And then the cells were exposed to the different inhibitors with various concentrations for 72 h. Finally, 10 μl of CCK-8 kit solution was added to each well and incubated for 3-4 hours under standard cell culture conditions, and the 96 well plates were measured the absorbance at 450 nm using Perkin–Elmer Wallac Victor ^3V 1420 multi label plate reader (Perkin–Elmer, Wellesley, USA). EC50s were calculated using GraphPad Prizm statistical package with sigmoidal variable slope dose response curve fit.

HEK293 cells = assay: Cell anti-proliferation / toxicity assay (CCK-8), HEK293 normal cell line; conditions: Homo sapiens, Table 6, 72 h
Experimental: as §1, §2

MCF-7 cells = assay: Cell anti-proliferation / toxicity assay (CCK-8), MCF-7; conditions: Homo sapiens, MCF7
Experimental: Initial tests designed around assessing whether a synergistic effect would be observed in real when a combination of G9a inhibitor and HDAC inhibitor used in conjunction.
as §1, §2

O=C(CCCCCCC(=O)Nc1ccccc1)NO [SAHA, reference compound]
EC50 (A549 cells): 19.3 ± 1.26 µM
EC50 (HEK293 cells): 2.48 ± 1.13 µM
EC50 (MCF-7 cells; Table 6, 72 h, CCK-8, mean ± SD of triplicates, read-out: EC50 MCF-7): 8.12 ± 4.98 µM
EC50 (MCF-7 cells; read-out: EC50, MCF-7 (combination study)): 8.12 ± 4.98 µM
